Experimental data as given in PMC11079228.
No constants are given. Whether binding was seen depends on the method and setting. Binding seen in cells or lysates may run through a third protein. Here binding means that the protein was enriched with, or labelled near, the bait; the list need not be complete. Values belong to the binder of their own block, whether it stands above or below them.

Molecular target: Huntingtin-interacting protein 1 (rat) (rat (endogenous in rat FLS))
Test: affinity purification with mass spectrometry; rabbit anti-rat-HIP1 antibody (20 μg per sample) on Dynabeads M-270 Epoxy; total lysates of rat FLS (one DA and one R6 cell line, each in triplicate), starved 24 h, then PDGFβ 100 ng/mL 30 min; lysis in water with protease and phosphatase inhibitors by three freeze-thaw cycles; elution with 8 M urea, LysC and trypsin, nano-LC-MS/MS, label-free quantitation

binding: binds
B2: PRDX4 (protein, UniProt Q9Z0V5 41-273)
chain: ESDDRFRTRENECHFYAGGQVYPGEVSRVSVADHSLHLSKAKISKPAPYWEGTAVINGEFKELKLTDYRGKYLVFFFYPLDFTFVCPTEIIAFGDRIEEFKSINTEVVACSVDSQFTHLAWINTPRRQGGLGPIRIPLLSDLNHQISKDYGVYLEDSGHTLRGLFIIDDKGVLRQITLNDLPVGRSVDETLRLVQAFQYTDKHGEVCPAGWKPGSETIIPDPAGKLKYFDKLN

binding: binds
B5: AIP (protein, UniProt Q5FWY5 1-330)
chain: MADLIARLREDGIQKRVIQEGRGELPEFQDGTKATFHFRTLHSDPEGSVIDDSRARGKPMELIIGKKFKLPVWETIVRTMREGETAQFLCDVKHTVLYPLVAKSLRNIAEGKDPLEGQRHCCGIAQMHEHSSLGHADLDALQQNPQPLIFHIEMLKVESPGTYQQDPWAMTDEEKAKAVPLIHQEGNRLYREGQVKEAAAKYYDAIACLKNLQMKEQPGSPDWIQLDLQITPLLLNYCQCKLVAQEYYEVLDHCSSILNKYDDNVKAYFKRGKAHAAVWNAQEAQADFAKVLELDPALAPVVSRELRALEARIRQKDEEDKARFRGIFSH

binding: binds
B6: ATG7 (protein, UniProt Q641Y5 1-698)
chain: MGDPGLSKLQFAPFNSALDVGFWHELTQKKLNEYRLDEAPKDIKGYYYNGDSAGLPTRLTLEFSAFDMSAPTPARCCPAMGTLHNTNTLEAFKTADKKLLLEQSANEIWEAIKSGAALENPMLLNKFLLLTFADLKKYHFYYWFCCPALCLPESIPLIRGPVGLDQRLSPKQIQALEHAYDDLCRTEGVTALPYFLFKYDDDTVLVSLLKHYSDFFQGQRTKLTVGVYDPCNLTQHPGWPLRNFLVLAAHRWSGSFQSVEVLCFRDRTMQGARDVTHSIIFEVKLPEMAFSPDCPKAVGWEKNQKGGMGPRMVNLSGCMDPKRLAESSVDLNLKLMCWRLVPTLDLDKVVSVKCLLLGAGTLGCNVARTLMGWGVRHVTFVDNAKISYSNPVRQPLYEFEDCLGGGKPKALAAAERLQKIFPGVNASGFNMSIPMPGHPVNFSDVTMEQARRDVEQLEELIDSHDVIFLLMDTRESRWLPTVIAASKRKLVINAALGFDTFVVMRHGLKKPKQQGAGDLCPSHLVAPADLGSSLFANIPGYKLGCYFCNDVVAPGDSTRDRTLDQQCTVSRPGLAVIAGALAVELMVSVLQHPEGGYAIASSSDDRMNEPPTSLGLVPHQIRGFLSRFDNVLPVSLAFDKCTACSSKVLDQYEQEGFTFLAKVFNSSHSFLEDLTGLTLLHQETQAAEIWDMSDEETV

binding: binds
B9: PSMA3 (protein, UniProt P18422 1-255)
chain: MSSIGTGYDLSASTFSPDGRVFQVEYAMKAVENSSTAIGIRCKDGVVFGVEKLVLSKLYEEGSNKRLFNVDRHVGMAVAGLLADARSLADIAREEASNFRSNFGYNIPLKHLADRVAMYVHAYTLYSAVRPFGCSFMLGSYSVNDGAQLYMIDPSGVSYGYWGCAIGKARQAAKTEIEKLQMKEMTCRDVVKEVAKIIYIVHDEVKDKAFELELSWVGELTKGRHEIVPKDVREEAEKYAKESLKEEDESDDDNM

Second part, the binder before the results:

B1: PSMA2 (protein, UniProt P17220 1-234)
chain: MAERGYSFSLTTFSPSGKLVQIEYALAAVAGGAPSVGIKAANGVVLATEKKQKSILYDERSVHKVEPITKHIGLVYSGMGPDYRVLVHRARKLAQQYYLVYQEPIPTAQLVQRVASVMQEYTQSGGVRPFGVSLLICGWNEGRPYLFQSDPSGAYFAWKATAMGKNYVNGKTFLEKRYNEDLELEDAIHTAILTLKESFEGQMTEDNIEVGICNEAGFRRLTPTEVRDYLAAIA
binding: binds

B3: PSMA5 (protein, UniProt P34064 1-241)
chain: MFLTRSEYDRGVNTFSPEGRLFQVEYAIEGHKLGSTAIGIQTSEGVCLAVEKRITSPLMEPSSIEKIVEIDAHIGCAMSGLIADAKTLIDKARVETQNHWFTYNETMTVESVTQAVSNLALQFGEEDADPGAMSRPFGVALLFGGVDEKGPQLFHMDPSGTFVQCDARAIGSASEGAQSSLQEVYHKSTTLKEAIKSSLIILKQVMEEKLNATNIELATVQPGQNFHMFTKEELEEVIKDI
binding: binds

B4: LAMP2 (protein, UniProt P17046 27-411)
chain: LKLNLTDSKGTCLYAEWEMNFTITYEALKVNETVTITVPDKVTYNGSSCGDDKNGAKIMIQYGSTLSWAVNFTKEASQYFINNITLSYNTNDTKTFPGAVPKGILTVIIPVGSQLPLGVIFKCSSVLTFNLSPVVQHYWGIHLQAFVQNGTVSKHEQVCKEDKTATTVAPIIHTTVPSPTTTLTPTSIPVPTPTVGNYTISNGNATCLLATMGLQLNITEEKVPFIFNINPAITNFTGSCQPQTAQLRLNNSQIKYLDFIFAVKNEKRFYLKEVNVNMYLANGSAFHVSNNNLSFWDAPLGSSYMCNKEQVVSVSRTFQINTFNLKVQPFNVTKGEYSTAQDCSADEDNFLVPIAVGAALGGVLILVLLAYFIGLKRHHTGYEQF
binding: binds

B7: WDR1 (protein, UniProt Q5RKI0 1-606)
chain: MPYEIKKVFASLPQVERGVSKILGGDPKGDNFLYTNGKCVILRNIDNPAVADIYTEHAHQVVVAKYAPSGFYIASGDISGKLRIWDTTQKEHILKYEYQPFAGKIKDIAWTEDSKRIAVVGEGREKFGAVFLWDTGSSVGEITGHNKVINSVDIKQNRPYRLATGSDDNCAAFFEGPPFKFKFTIGDHSRFVNCVRFSPDGNRFATASADGQIFIYDGKTGEKVCALGGSKAHDGGIYAISWSPDSTHLLSASGDKTSKIWDVNVNSVVSTFPMGSNVLDQQLGCLWQKDHLLSISLSGYINYLDKNNPSKPLRVIKGHSKSIQCLTVHKNGGKSYIYSGSHDGHINYWDSETGENDSFSGKGHTNQVSRMTVDESGQLVSCSMDDTVRYTNLTLRDYSGQGVVKLDVQPKCVAVGPGGYTVVVCIGQIVLLKDQKKCFSIDNPGYEPEVVAVHPGGDTVAVGGSDGNVRVYSILGATLKDEGKLLEAKGPVTDLAYSHDGAFLAVCDASKVVTVFSVADGYSENNVFYGHHAKIVCLAWSPDNEHFASGGMDMMVYVWTLSDPETKVKIQDAHRLHHVSSLAWLDEHTLVTTSHDASVKEWTITY
binding: binds

B8: PPP4C (protein, UniProt Q5BJ92 1-307)
chain: MAEISDLDRQIEQLRRCELIKESEVKALCAKAREILVEESNVQRVDSPVTVCGDIHGQFYDLKELFRVGGDVPETNYLFMGDFVDRGFYSVETFLLLLALKVRYPDRITLIRGNHESRQITQVYGFYDECLRKYGSVTVWRYCTEIFDYLSLSAIIDGKIFCVHGGLSPSIQTLDQIRTIDRKQEVPHDGPMCDLLWSDPEDTTGWGVSPRGAGYLFGSDVVAQFNAANDIDMTCRAHQLVMEGYKWHFNETVLTVWSAPNYCYRCGNVAAILELDEHLQKDFIIFEAAPQETRGIPSKKPVADYFL
binding: binds

B10: PSMA4 (protein, UniProt P21670 1-261)
chain: MSRRYDSRTTIFSPEGRLYQVEYAMEAIGHAGTCLGILANDGVLLAAERRNIHKLLDEVFFSEKIYKLNEDMACSVAGITSDANVLTNELRLIAQRYLLQYQEPIPCEQLVTALCDIKQAYTQFGGKRPFGVSLLYIGWDKHYGFQLYQSDPSGNYGGWKATCIGNNSAAAVSMLKQDYKEGEMTLKSALALAVKVLNKTMDVSKLSAEKVEIATLTRENGKTVIRVLKQKEVEQLIKKHEEEEAKAEREKKEKEQREKDK
binding: binds
